# PubChem BioAssay AID328 (DTP/NCI, 2004)
# The list is a part of this screen's results and no random one: it is rich in T/C values a quarter to a half above the control, in often repeated tests (any T/C) and in doses without a T/C. Other doses and runs of a compound stand elsewhere. T/C: endpoint of the treated group in % of that of the vehicle group. Some entries give survivors of the animals treated and no T/C: the source holds a T/C of zero for them, seemingly a mark for toxic or unscored doses. Some doses without a T/C left all or most animals alive at the check, yet need not have been tolerated: survival well below the control is almost never listed, so the zero probably covers shortened survival too. Survivors were counted at the toxicity check, usually on the fifth day, unless a day is given; later deaths do not show. Schedules are NCI's codes, taken here to give the interval after Q, in days (D) or hours (H), and the number of doses after X. Some doses were run more than once; their values stand side by side, smallest first. Where survival is the endpoint, the PubChem record calls one and a half times the control and up active, and a quarter to a half above the control has no call in these data; cut-offs in other NCI protocols can differ. Some T/C values carry the count of animals alive at the toxicity check (mostly the fifth day); where none is given, no animal had died by that day. Counts like (3×) stand for listed records that agree.
# Test system: BDF1 mice, P388 leukemia ip, median survival T/C
# Experiment: NCI In Vivo Anticancer Drug Screen. Data for tumor model P388 Leukemia (intraperitoneal) in B6D2F1 (BDF1) mice
# Conditions: T/C endpoint: median survival time, higher T/C = longer survival
# Procedure, shortened: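 Steps: implant the tumour, treat one group with compound and another with vehicle, record survival, then divide treated by control.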
# [1] = dose: 50.0 mg/kg/injection, schedule: Q01DX005 (ip), vehicle: Klucel (hydroxypropylcellulose) (HPC)
# [2] = dose: 50.0 mg/kg/injection, schedule: Q01DX009 (ip), vehicle: Klucel (hydroxypropylcellulose) (HPC)
# [3] = dose: 50.0 mg/kg/injection, schedule: Q04DX002 (ip), vehicle: Klucel (hydroxypropylcellulose) (HPC)
# [4] = dose: 50.0 mg/kg/injection, schedule: Q04DX003 (ip), vehicle: Klucel (hydroxypropylcellulose) (HPC)
# [5] = dose: 100.0 mg/kg/injection, schedule: Q01DX001 (ip), vehicle: Klucel (hydroxypropylcellulose) (HPC)
# [6] = dose: 100.0 mg/kg/injection, schedule: Q01DX009 (ip), vehicle: Klucel (hydroxypropylcellulose) (HPC)
# [7] = dose: 100.0 mg/kg/injection, schedule: Q04DX002 (ip), vehicle: Klucel (hydroxypropylcellulose) (HPC)
# [8] = dose: 100.0 mg/kg/injection, schedule: Q04DX003 (ip), vehicle: Klucel (hydroxypropylcellulose) (HPC)
# [9] = dose: 200.0 mg/kg/injection, schedule: Q01DX001 (ip), vehicle: Klucel (hydroxypropylcellulose) (HPC)
# [10] = dose: 200.0 mg/kg/injection, schedule: Q01DX005 (ip), vehicle: Klucel (hydroxypropylcellulose) (HPC)
# [11] = dose: 200.0 mg/kg/injection, schedule: Q01DX009 (ip), vehicle: Klucel (hydroxypropylcellulose) (HPC)
# [12] = dose: 200.0 mg/kg/injection, schedule: Q04DX002 (ip), vehicle: Klucel (hydroxypropylcellulose) (HPC)
# [13] = dose: 200.0 mg/kg/injection, schedule: Q04DX003 (ip), vehicle: Klucel (hydroxypropylcellulose) (HPC)
# [14] = dose: 400.0 mg/kg/injection, schedule: Q01DX001 (ip), vehicle: Klucel (hydroxypropylcellulose) (HPC)
# [15] = dose: 400.0 mg/kg/injection, schedule: Q01DX005 (ip), vehicle: Klucel (hydroxypropylcellulose) (HPC)
# [16] = dose: 400.0 mg/kg/injection, schedule: Q01DX009 (ip), vehicle: Klucel (hydroxypropylcellulose) (HPC)
# [17] = dose: 400.0 mg/kg/injection, schedule: Q04DX002 (ip), vehicle: Klucel (hydroxypropylcellulose) (HPC)
# [18] = dose: 400.0 mg/kg/injection, schedule: Q04DX003 (ip), vehicle: Klucel (hydroxypropylcellulose) (HPC)
# [19] = dose: 200.0 mg/kg/injection, schedule: Q01DX009 (ip), vehicle: saline with Tween-80
# [20] = dose: 400.0 mg/kg/injection, schedule: Q01DX009 (ip), vehicle: saline
compound,measurement,setting,value
C[C@]12C=CC(=O)C=C1CC[C@@H]1[C@@H]2C(=O)C[C@@]2(C)[C@H]1CC[C@]2(O)C(=O)CO,survivor count,"dose: 3.12 mg/kg/injection, schedule: Q01DX009 (ip), vehicle: carboxymethylcellulose (CMC)",10 of 10
same,survivor count,"dose: 25.0 mg/kg/injection, schedule: Q01DX009 (ip), vehicle: carboxymethylcellulose (CMC)",8 of 10 and 10 of 10
same,T/C,"dose: 50.0 mg/kg/injection, schedule: Q01DX001 (ip), vehicle: Klucel (hydroxypropylcellulose) (HPC)","87, 89, 91, 94, 95 (2×), 96, 97, 98, 99 (2×), 100 (4×), 102 (3×), 103 (2×), 105, 106, 107 (2×), 108, 111, 116, 125 % of control"
same,T/C,[1],"86, 87, 88 (2×), 90, 94 [2 of 3 alive], 97, 99, 101, 102, 103, 105, 106, 107, 108 (2×), 110, 111 (3×), 112, 113 (2×), 114, 115, 116, 117 (2×), 118, 119, 125, 126, 128, 137 % of control"
same,survivor count,[1],6 of 6
same,T/C,[2],"86 (2×), 88, 90, 92, 93 (2×), 94 (2×), 95, 97, 98, 100, 101, 101 [5 of 6 alive], 103 (3×), 104, 106, 107, 108, 109, 110 (3×), 113, 115 (2×), 119, 140 % of control"
same,survivor count,[2],2 of 3 and 3 of 3
same,T/C,[3],"94, 100 (4×), 101, 103 (3×), 104, 105 (2×), 106 (2×), 107, 108, 109 (2×), 110, 111, 112, 113, 115 (2×), 115 [2 of 3 alive], 116, 119, 120, 121, 122 (2×), 130 % of control"
same,survivor count,[3],3 of 3 and 6 of 6
same,T/C,[4],"87, 91, 94 (2×), 95, 96, 98, 100, 103 (3×), 105, 106, 107 (3×), 108, 110 (3×), 111 (3×), 112 (2×), 114 (2×), 115 (2×), 117 (2×), 118, 122, 125 % of control"
same,survivor count,[4],3 of 3 and 6 of 6
same,T/C,[5],"88, 90, 94 (2×), 95 (2×), 96 (2×), 98, 100 (2×), 101, 103, 104, 105 (2×), 106, 107, 110, 111, 113, 116, 117, 118, 119, 122, 123 % of control"
same,survivor count,[5],3 of 6
same,T/C,"dose: 100.0 mg/kg/injection, schedule: Q01DX005 (ip), vehicle: Klucel (hydroxypropylcellulose) (HPC)","90 [5 of 6 alive], 94, 94 [5 of 6 alive], 97 [2 of 3 alive], 99, 100 (3×), 102, 103 (3×), 106 (2×), 106 [2 of 3 alive], 107, 108, 109, 110 (3×), 111, 112, 113 (2×), 114 (3×), 117, 119, 120, 120 [5 of 6 alive], 123, 125, 146 % of control"
same,T/C,[6],"86 (2×), 87, 88 (2×), 94, 96 [4 of 6 alive], 98, 100, 101 (3×), 102 (2×), 103, 106 (3×), 108, 109, 110 (3×), 113 (2×), 116, 119 % of control"
same,survivor count,[6],3 of 3 and 6 of 6
same,T/C,[7],"88, 90, 99, 100 (2×), 102 (3×), 103 (2×), 105 (2×), 106 (3×), 107, 109 (2×), 111 [5 of 6 alive], 112 (2×), 114, 115 (3×), 116 (3×), 120 (4×), 123 % of control"
same,survivor count,[7],3 of 3
same,T/C,[8],"91, 94, 96, 98 (2×), 99, 101, 102, 103 (2×), 104 (2×), 105, 106, 108, 110, 111 (4×), 113, 115 (2×), 116 (2×), 117 (2×), 118 (2×), 120 (2×), 122, 125, 127 % of control"
same,survivor count,[8],3 of 3 and 6 of 6
same,T/C,[9],"90, 95, 97, 98, 99, 100, 101 (2×), 102, 103 (2×), 104 (2×), 106 (4×), 108, 111 (2×), 113 (2×), 116, 117, 119, 121, 122 % of control"
same,survivor count,[9],3 of 3
same,T/C,[10],"89 [5 of 6 alive], 91, 95, 97, 100 (2×), 101, 102, 103 (3×), 104, 105 (2×), 106, 107 (4×), 108, 108 [2 of 3 alive], 110, 111 (2×), 112, 116, 116 [5 of 6 alive], 117 (2×), 119, 121, 121 % of control [2 of 3 alive]"
same,survivor count,[10],"3 of 6, 2 of 3, 6 of 6"
same,T/C,[11],"86, 87, 88, 88 [5 of 6 alive], 89 [5 of 6 alive], 92 (2×), 93 (2×), 94, 95, 98, 100, 103 (2×), 104, 106, 107, 108 (2×), 110, 112, 120, 122, 123 % of control"
same,survivor count,[11],"5 of 6, 3 of 3, 6 of 6"
same,T/C,[12],"95, 97, 100 (3×), 101 (2×), 102 (2×), 103, 104, 105, 106, 107 (2×), 107 [5 of 6 alive], 109, 110 (2×), 111, 111 [5 of 6 alive], 112 (2×), 114, 115 (2×), 116, 118, 119, 120, 122, 123, 132 % of control"
same,survivor count,[12],2 of 3
same,T/C,[13],"88 (2×), 95, 96 (2×), 98, 99, 101, 102, 104 (2×), 105 (2×), 106, 108, 109 (4×), 110, 111 (4×), 112, 114 (2×), 116 (2×), 118, 120, 125, 126, 140 % of control"
same,survivor count,[13],3 of 3
same,T/C,[14],"86, 99, 101 (3×), 102 (2×), 103, 104 (3×), 106, 108 (2×), 109 (2×), 110 (3×), 111 (2×), 111 [5 of 6 alive], 112, 115, 117 (2×), 126 % of control"
same,survivor count,[14],6 of 6
same,T/C,[15],"88, 88 [5 of 6 alive], 91 (2×), 92, 93, 96, 97, 100 (2×), 100 [5 of 6 alive], 101 (3×), 103 (2×), 105, 107, 108, 109 (3×), 110, 117, 122, 128 % of control"
same,survivor count,[15],"3 of 6, 2 of 3, 5 of 6, 3 of 3, 6 of 6"
same,T/C,[16],"86 (2×), 90, 92, 93, 94, 95, 97 (4×), 98, 102 (2×), 106, 108 (2×), 114 % of control"
same,survivor count,[16],"2 of 6, 5 of 6, 2 of 2, 3 of 3, 6 of 6"
same,T/C,[17],"95, 97 (2×), 99, 100, 101 (2×), 102 (3×), 103 (2×), 104 (2×), 106 (2×), 107 (2×), 109 (2×), 110, 111, 112, 113, 114, 115, 116, 117 (3×), 120, 125, 130 % of control"
same,survivor count,[17],3 of 3
same,T/C,[18],"94, 96, 99, 100, 101 (2×), 102 (2×), 103 (3×), 105 (3×), 106 (2×), 108, 109, 110 (2×), 111, 112 (2×), 113, 114 (3×), 115, 117, 119, 120, 127, 130 % of control"
same,survivor count,[18],3 of 3 and 6 of 6
C=C1[C@@H](C)[C@H]2[C@H](Cc3ccccc3)NC(=O)[C@]23OC(=O)/C=C/[C@H](O)CCC[C@@H](C)C/C=C/[C@H]3[C@@H]1O,survivor count,"dose: 0.5 mg/kg/injection, schedule: Q04DX002 (ip), vehicle: saline",3 of 3
same,T/C,"dose: 4.0 mg/kg/injection, schedule: Q04DX002 (ip), vehicle: saline",127 % of control [2 of 3 alive]
CCOC(CN1CCN(CC(C)C(=O)c2ccccc2)CC1)c1ccccc1 (configuration not stated),survivor count,[19],0 of 6
O=S1(=O)CC(Cl)(Br)C1 (tested in a mixture with another compound),survivor count,[11],4 of 6
same,survivor count,[16],0 of 6
CC(=O)OCCC(CCOC(C)=O)=C1N=C(c2ccccc2)OC1=O,T/C,"dose: 130.0 mg/kg/injection, schedule: Q01DX009 (ip), vehicle: saline with Tween-80",127 % of control
same,T/C,[19],125 and 136 % of control
COC(=O)/C(C#N)=C\c1ccccc1,survivor count,"dose: 200.0 mg/kg/injection, schedule: Q04DX003 (ip), vehicle: saline with Tween-80",5 of 6
CNC(C)(C)CO,survivor count,[20],1 of 6
CCOC(=O)C(CC(C)C)NC(=O)C(Cc1ccc(N(CCCl)CCCl)cc1)NC(C)=O (configuration not stated),T/C,"dose: 4.0 mg/kg/injection, schedule: Q01DX009 (ip), vehicle: other",145 % of control
same,T/C,"dose: 16.0 mg/kg/injection, schedule: Q01DX009 (ip), vehicle: other",139 % of control
NC(Cc1c[nH]c2ccc(N(CCCl)CCCl)cc12)C(=O)O (configuration not stated),survivor count,"dose: 2.0 mg/kg/injection, schedule: Q01DX010 (ip), vehicle: saline",6 of 6
same,survivor count,"dose: 4.0 mg/kg/injection, schedule: Q01DX010 (ip), vehicle: saline",6 of 6
Nc1cc(Cl)ncn1,survivor count,[6],5 of 6
same,survivor count,"dose: 265.0 mg/kg/injection, schedule: Q01DX009 (ip), vehicle: saline",6 of 6
same,T/C,[16],129 % of control
CN(C)c1ccc(C(=O)O)cn1,T/C,[20],129 % of control
